Results on 62 molecules are retold here after PubChem BioAssay AID2685 (National Center for Advancing Translational Sciences (NCATS), 2010).

As a reminder, the AC50 is the concentration giving half of the maximal activity seen. Low values mean greater potency, high ones weaker potency.

The structures appear in SMILES notation. The list shows a part of the results. These are further read-outs of the screen, such as a control signal, another cell line or another target. No call is given for them. Compounds called inactive in the main read-out are mostly missing here. Words in brackets tell the shape of the fitted curve; partial curves, single points and poor fits give uncertain potencies.

The assay is described as follows: qHTS Assay for Lipid Storage Modulators in Drosophila S3 Cells.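 On cell number change: cells counted by Cell Tracker Red CMTPX staining in the red channel.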 The conditions noted are these: BODIPY lipid droplet fluorescence, 18-24 h; for cell number change: measured here: cell count max response, cells fed with added oleic acid. An outline of the steps: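 Drosophila S3 cells loaded with oleic acid (400 uM, as added) and compounds at several concentrations; lipid droplets imaged by 488-nm laser-scanning cytometry, 500–530 nm intensity and object ratio to cell channel. Percent activity normalized to 20 uM Triacsin C.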
For orientation: qHTS replaces the single test concentration by a dilution series.

Where [1] appears, read: measured here: cell number channel AC50, cells fed with added oleic acid.
[2] abbreviates: measured here: lipid fluorescence (Fed channel) AC50, cells fed with added oleic acid.

In the case of `Cc1cc(NS(=O)(=O)c2ccc(NC(=O)C(C)N3C(=O)c4ccccc4C3=O)cc2)nc(C)n1` (stereo not drawn), the cell number change is -39.9%. Moreover, under setting [1], the AC50 is 5.17 µM [falling, partial curve]. Further, the AC50 under setting [2] was 29.1 µM [falling, single point].
Turning to `O=C(CCC(=O)Nc1cccc([N+](=O)[O-])c1)NCc1ccccc1`, the cell number change was -2.99%. Besides, under setting [2], the AC50 is 23.1 µM [falling, single point].
For the molecule `COC(=O)c1cccc(C(=O)N2CCCC(Nc3ccc(C)c(C)c3)C2)c1` (stereo not drawn), the cell number change turned out to be 60.1%. Besides, the AC50 under setting [1] was 25.9 µM [rising, single point].
On to `O=C1c2ccccc2C(=O)N1CC(O)CNc1ccc(Br)cc1` (stereo not drawn), for which the cell number change was -1.13%.
Take `COc1cc2cc(/C=C/C(=O)c3ccco3)c(Cl)nc2cc1OC`: the cell number change was 8.9%.
On to `Cc1cc(OC(C)C(=O)NCCN2CCOCC2)c2c(C)c(C)c(=O)oc2c1` (stereo not drawn), for which the cell number change is -11.9%.
As to `COCC(C)n1c(-c2ccc3c(c2)NC(=O)CO3)csc1=Nc1ccc(OC(F)F)cc1` (stereo not drawn), the cell number change stood at 7.17%. The AC50 under setting [1] is 2.31 µM [rising, partial curve]. For the same molecule, under setting [2], the AC50 was 4.11 µM [rising, partial curve].
Regarding `C=CCNC(=O)C1CCN(S(=O)(=O)CC)CC1`, the cell number change came to 101%.
Take `O=C1c2ccccc2NC2(CCCCC2)N1c1ccc(O)cc1`: the cell number change amounted to 6.12%. For the same molecule, the AC50 under setting [2] is 0.259 µM [falling, full curve].
For `COc1ccc(-c2ocnc2C(=O)N2CCN(C(c3ccccc3)c3ccccc3)CC2)cc1`, the cell number change came out at 8.79%. Moreover, the AC50 under setting [2] was 0.164 µM [rising, full curve, poor fit].
As to `COc1cc(C(=O)Nc2cccc(S(=O)(=O)N3CCCC3)c2)c([N+](=O)[O-])cc1OC`, the cell number change was -1.6%. Also, the concentration at half-maximal activity (AC50) under setting [2] was 6.51 µM [rising, single point].
As for `O=C(CSc1ncc(C(F)(F)F)cc1Cl)N1CCN(S(=O)(=O)c2ccc3ccccc3c2)CC1`, the cell number change came to 33.8%. The AC50 under setting [1] was 1.64 µM [rising, full curve, poor fit].
As to `Cc1ccccc1COC(=O)CCC1=NS(=O)(=O)c2ccccc2N1`, the cell number change was -48.2%. Besides, under setting [1], the AC50 was 20.6 µM [falling, single point].
For `Cn1c(-c2ccccc2)cc(=O)c2ccccc21`, the AC50 under setting [2] is 6.51 µM [rising, single point].
Turning to `c1ccc(Sc2nc(N3CCCCC3)nc(N3CCCCC3)n2)nc1`, the cell number change is -34.2%. Besides, the AC50 under setting [2] was 14.6 µM [falling, partial curve].
Take `CCC(C(=O)OCCOCCN(CC)CC)c1ccccc1` (stereo not drawn): the cell number change was -28.1%.
For the molecule `Cc1cc(OCC(=O)O/N=C(\N)c2ccccc2)cc(C)c1Cl`, the cell number change is -17.4%. Besides, the AC50 under setting [2] is 29.1 µM [falling, single point].
With `CC1CC(C)CN(C(=O)c2cccc(S(=O)(=O)Nc3cc(C(F)(F)F)ccc3Cl)c2)C1` (stereo not drawn), the cell number change was -15.9%. Also, the AC50 under setting [2] is 5.8 µM [falling, single point].
For `N/C(=N\OC(=O)N1CCOCC1)c1ccc(Cl)cc1`, the cell number change is -18.6%. Moreover, under setting [2], the AC50 was 0.0291 µM [falling, full curve, poor fit].
In the case of `COc1ccc(N(S(=O)(=O)c2ccccc2)S(=O)(=O)c2ccccc2)c(N)c1`, the cell number change worked out at 12.6%. Besides, the AC50 under setting [1] is 0.326 µM [rising, partial curve, poor fit].
In the case of `CCOC(=O)Nc1sc(NS(=O)(=O)c2ccccc2)nc1C`, the cell number change came to 11.4%. Moreover, under setting [2], the AC50 is 2.59 µM [rising, single point].
Consider `CC1(C)Oc2ccc(C(=O)N3CCOCC3)cc2N(CC(=O)N2CCOCC2)C1=O`, for which the cell number change was -27.4%. For the same molecule, the concentration at half-maximal activity (AC50) under setting [1] is 0.0291 µM [falling, full curve, poor fit]. For the same molecule, under setting [2], the AC50 was 4.61 µM [falling, single point].
Turning to `COc1ccc2oc(C(=O)OCC(=O)N(C)CC(=O)Nc3ccc(C)cc3)c(C)c2c1`, the cell number change turned out to be 38.8%. Besides, under setting [1], the AC50 is 29.1 µM [rising, single point]. Further, the half-maximal activity concentration (AC50) under setting [2] was 20.6 µM [falling, single point].
Turning to `Cc1cccc2sc(NNC(=O)c3ccc4c(c3)OCCO4)nc12`, the cell number change turned out to be 3.49%. Under setting [2], the AC50 is 29.1 µM [rising, single point].
For the molecule `Fc1ccc2nc(Nc3nc4c(F)cc(F)cc4s3)sc2c1`, the cell number change is -45.1%. Also, the AC50 under setting [1] is 29.1 µM [falling, single point].
In the case of `Cc1cccc(S(=O)(=O)NCCC(=O)OCC(=O)Nc2ccc(C#N)cc2)c1`, the cell number change was -1.8%. Moreover, the concentration at half-maximal activity (AC50) under setting [2] is 29.1 µM [rising, single point].
For the molecule `C/C(=N\NC(=O)CC#N)c1cc2ccc(O)cc2oc1=O`, the cell number change was -40%.
`O=C(C[n+]1ccccc1)NNc1ccccc1`: the cell number change amounted to 18.9%. Moreover, the AC50 under setting [1] was 0.82 µM [rising, full curve, poor fit]. Moreover, the half-maximal activity concentration (AC50) under setting [2] was 0.82 µM [rising, full curve, poor fit].
Consider `Cc1ccc(NC(=O)Nc2ccon2)cc1`, for which the cell number change was 2.21%.
For the molecule `Cc1cccc(NC(=O)C2Cc3ccccc3CN2C(=O)OCc2ccccc2)c1C` (stereo not drawn), the cell number change was -45.1%. Also, the AC50 under setting [1] was 29.1 µM [falling, single point].
On to `O=C(NCc1cccnc1)NC(C(F)(F)F)C(F)(F)F`, for which the cell number change is -9.01%.
As for `Cc1c(NC(=O)N2CCCCCC2)c(=O)n(-c2ccccc2)n1C`, the cell number change is -23%. Moreover, under setting [1], the AC50 was 3.66 µM [falling, full curve, poor fit]. For the same molecule, the AC50 under setting [2] was 29.1 µM [falling, single point].
For `Cc1ccc(S(=O)(=O)N2CCN(C(=O)COC(=O)/C=C/c3ccccc3F)CC2)c(C)c1`, the cell number change was 5.94%. In addition, the AC50 under setting [2] was 29.1 µM [rising, partial curve, poor fit].
For the molecule `O=S(=O)(O)c1nnc2sc3ccccc3n12`, the cell number change was 11.4%.
With `O=C(CN(c1ccc(Br)cc1)S(=O)(=O)c1ccc(Cl)c([N+](=O)[O-])c1)NCCc1ccccc1`, the cell number change was -20.4%.
Turning to `COC(=O)c1ccc(NC(=S)NC(=O)c2c(Cl)cnn2C)cc1`, the cell number change is -30.2%. Moreover, the AC50 under setting [1] is 0.731 µM [rising, full curve].
`Cc1cc(S(=O)(=O)N2CCC3(CC2)OCCN3S(=O)(=O)c2cccs2)ccc1F`: the cell number change is 11.4%.
For the molecule `Cn1cccc1/C=N/N1CCN(Cc2cccc3ccccc23)CC1`, under setting [1], the AC50 was 0.13 µM [rising, partial curve, poor fit].
Regarding `COc1cc(C(=O)Oc2cccc(C=O)c2)cc(OC)c1OC`, the cell number change is -4.85%. The AC50 under setting [1] is 2.59 µM [falling, single point].
For the molecule `C/C(=C1/SC(=S)N(CCC(=O)O)C1=O)c1ccc(O)cc1`, the cell number change was -7.93%.
Same read-out and setting: next, `O=C(NCC(=O)N(c1ccc(F)cc1)C(C(=O)NC1CCCC1)c1ccncc1)c1ccco1` (stereo not drawn): -0.952%.
On to `COc1ccc2c(c1)C(=O)N(c1ccccc1)C(=O)C2`, for which, under setting [2], the AC50 is 13 µM [falling, partial curve, poor fit].
In the case of `O=C(CN1C(=O)NC2(CCCC2)C1=O)Nc1nc(-c2ccc(F)c(F)c2)cs1`, the cell number change was -2.06%. Moreover, under setting [2], the AC50 is 0.082 µM [falling, partial curve, poor fit].
Regarding `c1ccc(-c2nn3c(C4CCCCC4)nnc3s2)nc1`, the cell number change worked out at 8.39%. For the same molecule, the AC50 under setting [2] is 29.1 µM [rising, partial curve, poor fit].
`Cc1ccc(S(=O)(=O)Cn2nnnc2C(CC(C)C)N2CCN(C(=O)c3ccco3)CC2)cc1` (stereo not drawn): the cell number change is -28.8%. Under setting [2], the AC50 was 11.6 µM [falling, partial curve].
Take `Cc1cc(C)nc(SCc2cc(=O)c(OC(=O)c3ccc(S(=O)(=O)N4CCCC4)cc3)co2)n1`: the cell number change stood at 20.1%. Moreover, the AC50 under setting [2] is 14.6 µM [rising, partial curve, poor fit].
Consider `COc1cccc(C2CC(c3cccc(OC)c3)n3nc(N)nc3N2)c1` (stereo not drawn), for which the cell number change is 50.2%. Besides, the AC50 under setting [1] is 8.2 µM [rising, partial curve].
Regarding `C=CCNC(=O)CSc1nnc(-c2ccccn2)n1Cc1ccccc1`, the cell number change worked out at 0.75%. Moreover, the AC50 under setting [2] was 0.0731 µM [falling, single point].
Consider `Cc1cc(C)cc(NC(=O)CSc2nc3[nH]c(=O)cc(O)c3s2)c1`, for which the cell number change turned out to be 23.5%. For the same molecule, under setting [2], the AC50 was 0.58 µM [falling, single point].
Take `Cc1ccc(-c2nn(-c3ccccc3)cc2/C=C/C(=O)Nc2cccc(S(N)(=O)=O)c2)cc1`: the cell number change is -28.4%. Also, the AC50 under setting [2] was 20.6 µM [falling, single point].
Consider `OC(CNCCCN1CCCCC1)COc1ccccc1` (stereo not drawn), for which the cell number change was -0.356%. Besides, the AC50 under setting [2] was 32.6 µM [falling, single point].
With `NS(=O)(=O)c1ccc(CCNC(=O)CNC(=O)c2ccccc2F)cc1`, the cell number change was -3.85%.
With `CC1CCN(CCc2nc3cc(NC(=O)COc4ccc([N+](=O)[O-])cc4)ccc3n2C)CC1`, the cell number change is 26.9%. Besides, the AC50 under setting [2] is 29.1 µM [rising, single point].
For `Cc1occc1C(=O)NCc1ccc(C(=O)O)o1`, the cell number change is -64.1%. In addition, the AC50 under setting [1] is 4.61 µM [falling, full curve].
Regarding `COc1cccc(Cn2c(=S)[nH]c3ccc(N4CCOCC4)cc3c2=O)c1`, the AC50 is 0.0731 µM [rising, full curve, poor fit] under setting [1] and 0.146 µM [rising, full curve, poor fit] under setting [2].
As to `O=c1c2ccccc2nc(-c2ccco2)n1/N=C/c1ccco1`, the cell number change amounted to 4.46%. The half-maximal activity concentration (AC50) under setting [2] is 1.84 µM [rising, single point].
As for `Cc1ccc(NC(=O)c2ccc(-c3nn(C)c(=O)c4ccccc34)cc2)cc1`, the cell number change came to 19.6%.
As for `CC(C)(C)OC(=O)NCCCCCNC(=O)c1[nH]cnc1C(=O)N[C@@H](Cc1ccccc1)C(=O)OCc1ccccc1`, the cell number change is -11.5%. In addition, the AC50 under setting [2] is 0.184 µM [rising, full curve, poor fit].
Turning to `CCC(C)NC(=O)CSc1nc2ccccc2c(=O)n1Cc1ccc(OC)cc1` (stereo not drawn), the cell number change came to 118%. Besides, the AC50 under setting [1] is 18.4 µM [rising, single point]. Also, under setting [2], the AC50 was 23.1 µM [rising, single point].
As for `O=C(COC(=O)CCc1nc2ccccc2n1-c1ccccc1)Nc1cccc(Cl)c1`, the cell number change is 33.3%. For the same molecule, the half-maximal activity concentration (AC50) under setting [1] is 20.6 µM [rising, single point]. Moreover, under setting [2], the AC50 was 16.4 µM [rising, partial curve].
For `COC(=O)c1ccc(COc2ccccc2[N+](=O)[O-])o1`, the cell number change was -5.87%. The AC50 under setting [2] was 2.06 µM [rising, partial curve].
With `CC1=C(OC(=O)c2ccc(Br)cc2)C(C)(C)C(c2ccccc2)OC1=O` (stereo not drawn), the cell number change was 9.04%.
